Patent US20160144055A1, “GENE THERAPY VECTOR FOR TREATMENT OF STEROID GLAUCOMA” (priority 2009, published 2016)
At least one compound was matched to its structure with a doubt left.

Key:
[1] = tested on: MMP1 protein secreted by HTM cells; assay: Western blot of secreted endogenous MMP1 in media of DEX-treated HTM cells; type: cell-based, human; settings: DEX-treated sample at 5 days
[2] = tested on: MMP1 substrate FRET peptide; assay: FRET peptide MMP1 activity assay on activated media of HTM cells; type: biochemical, human; settings: uninfected dishes, DEX-treated cells, 5 days

C[C@@H]1C[C@H]2[C@@H]3CCC4=CC(=O)C=C[C@]4(C)[C@@]3(F)[C@@H](O)C[C@]2(C)[C@@]1(O)C(=O)CO [DEX, dexamethasone]
secreted MMP1 protein by western blot [1]: reduced
relative fluorescence units of media (FRET) [2]: 1,607±63 relative fluorescence units
